Laboratory results published in patent publication US20200157135A1, “SIDE-CHAIN MODIFIED ERGOSTEROL AND STIGMASTEROL DERIVATIVES AS LIVER X RECEPTOR MODULATORS” (Ospedale San Raffaele srl, priority 2017, published 2020).
For part of these data: For at least one compound, name, drawing or mass did not settle the structure. Some of these results come from one statement about several compounds together.

How the values were obtained:
hLXRα = target: T1, hLXRα (Homo sapiens, UniProt Q13133); assay: luciferase assay with GAL-4 chimeric hLXRα receptor in human embryonic kidney 293 cells; format: cell-based; details: GAL4-hLXRα luciferase, HEK293; dose-response 32-1 μM; mean of three-five independent experiments
T1 sequence (Q13133 209-447 limits assumed): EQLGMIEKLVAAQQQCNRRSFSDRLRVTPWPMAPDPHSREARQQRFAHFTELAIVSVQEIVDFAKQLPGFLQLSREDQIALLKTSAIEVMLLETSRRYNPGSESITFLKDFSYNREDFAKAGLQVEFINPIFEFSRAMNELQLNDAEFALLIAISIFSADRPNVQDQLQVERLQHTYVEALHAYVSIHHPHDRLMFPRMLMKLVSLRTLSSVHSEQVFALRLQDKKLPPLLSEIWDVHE
Procedure: (§1) All the synthesized compounds were first tested for their ability to activate LXRs by using luciferase assays with GAL-4 chimeric receptors. These were performed by co-transfecting plasmids encoding hLXRα- and β-binding domains fused to GAL-4, with the respective responsive element conjugated with the luciferase reporter gene into the human embryonic kidney 293 cells.
(§2) Cell Culture and Co-transfection Assays. Human embryonic Kidney 293 cells (American Type Culture Collection) were cultured in Dulbecco's Modified Eagle's medium containing 10% of fetal bovine serum at 37° C. in humidified atmosphere of 5% CO2. […] Luciferase activities were analyzed by luciferase Dual Reporter Assay Systems (Promega) according to the manufacturer's protocol. […]
(§3) Statistical analysis. Data are expressed as mean±SEM and were analyzed for significance by ANOVA with Dunnet's multiple comparison tests. […] Data in Table 1 are expressed as EC50±SD. […] The efficacy (%) of the compounds was calculated as the percentage of the compound effect, in terms of LXRα or β activation, versus 8 μM of 22R—HC±SD. […]

hLXRβ = target: T2, hLXRβ (Homo sapiens, UniProt P55055); assay: luciferase assay with GAL-4 chimeric hLXRβ receptor in human embryonic kidney 293 cells; format: cell-based; details: GAL4-hLXRβ luciferase, HEK293; dose-response 32-1 μM; mean of three-five independent experiments
T2 sequence (P55055 222-460 limits assumed): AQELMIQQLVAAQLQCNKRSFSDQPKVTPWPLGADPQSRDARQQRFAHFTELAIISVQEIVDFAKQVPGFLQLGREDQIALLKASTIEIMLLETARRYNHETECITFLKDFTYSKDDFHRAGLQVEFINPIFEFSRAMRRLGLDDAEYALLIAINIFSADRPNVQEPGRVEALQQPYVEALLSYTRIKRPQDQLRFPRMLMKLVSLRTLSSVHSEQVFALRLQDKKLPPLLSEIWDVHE
Procedure: as §1, §2, §3

SCD1 = assay: qPCR of SCD1 expression in PMA-differentiated U937 cells; format: cell-based, human; details: U937 differentiated with PMA 72 h; 10 μM, 6 hours
Procedure: U937 cells differentiated with PMA for 72 hours were treated with T0901317 (10 μM), 22R—HC (3) or with the tested compound (10 μM). […] (n=3/group). *p<0.05, **p<0.01, ***p<0.001.
LXR agonists induce the expression of target genes, which are involved in cholesterol homeostasis, particularly in the reverse cholesterol transport pathway.43 Indeed, LXR agonists induce the expression of ABCA1 both in macrophages and in many tissues of the periphery such as the intestine.44 Moreover, ABCA1 regulates cholesterol efflux to APOAI acceptors.45 In the liver, LXR activation promotes the biosynthesis of fatty acids, a process also termed as de novo lipogenesis by inducing the expression of the master regulator of hepatic lipogenesis sterol-regulatory element-binding protein 1C (SREBP-1c), as well as several downstream genes in the SREBP-1c pathway, including steroyl CoA desaturase 1 (SCD1) and fatty acid synthase (FASN).43 Therefore, it was investigated, by quantitative PCR (qPCR), the expression of ABCA1, SREBP1c, FASN, and SCD1, by using RNA from monocytic U937 cells (FIG. 3) and from hepatic HepG2 cells (FIG. 4) stimulated with our compounds, the non-steroidal agonist T0901317 or the endogenous ligand 22R—HC (3) as positive controls. […] Then, the induction of genes involved in the lipogenesis using the hepatic cell line HepG2. 43,22 was evaluated. […]
Quantitative Real-Time-PCR. […]

C=C[C@@](O)(CC[C@@H](C)C1CCC2C3CC=C4C[C@@H](O)CC[C@]4(C)C3CC[C@@]21C)C(C)C (stereo partly drawn) [Compound 12, 24(S)-saringosterol, reference compound]
LXRα EC50 (μM) ± SD (hLXRα): 2.92 ± 0.05 µM | LXRβ EC50 (μM) ± SD (hLXRβ): 1.69 ± 0.22 µM

CC(C)[C@@H](C)[C@@H]1O[C@H]1[C@@H](C)[C@H]1CC[C@H]2C3=CC=C4C[C@@H](O)CC[C@]4(C)[C@H]3CC[C@]12C [Compound 16, (22S,23S)-22,23-Epoxyergosta-5,7-diene-3β-ol]
SCD1 activation (SCD1): below 2 fold
